Test results: patent US20240034800A1 (MEDYTOX, published 2024)
Positions count from the first letter of the chain named. In names and notes the source's numbering stands. These are yes or no findings as the source states them, for the method shown. Some results given as binding are weak or reduced against the parent protein; the word gives no strength.

Amino acid sequences for entries named in this document (tags omitted). A change or cut given only in a name is not applied to a line headed by its entry.
UniProt Q92956: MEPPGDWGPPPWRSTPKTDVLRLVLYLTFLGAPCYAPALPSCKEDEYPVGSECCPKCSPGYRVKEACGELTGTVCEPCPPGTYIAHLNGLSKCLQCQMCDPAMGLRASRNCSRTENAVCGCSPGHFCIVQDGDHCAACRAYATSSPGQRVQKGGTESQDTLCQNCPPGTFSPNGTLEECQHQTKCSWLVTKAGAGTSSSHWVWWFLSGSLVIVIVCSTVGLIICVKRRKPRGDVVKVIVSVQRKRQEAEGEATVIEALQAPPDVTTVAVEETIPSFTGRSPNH

B1: HVEM011 (antibody, human IgG4 S228P, kappa, V domains shown)
VH: EVQLLESGGGLVQPGGSLRLSCAASEFTFSSYAMHWVRQAPGKGLEWVSSITSASSYIDYADSVKGRFTISRDNSKNTLYLQMNSLRAEDTAVYYCARGTRGLFDHWGQGTLVTVSS
VL: EIVLTQSPGTLSLSPGERATLSCRASRSVGKYLAWYQQKPGQAPRLLIYLGSNRASGIPDRFSGSGSGTDFTLTISRLEPEDFAVYYCQQYGSSPPITFGQGTKVEIKR
notes: Full-size human IgG4 (S228P) kappa antibody made in ExpiCHO-S; human IL-2 signal peptide is cleaved and left out; also called HVEM011 antibody
B2: HVEM030 (antibody, human IgG4 S228P, kappa, V domains shown)
VH: EVQLLESGGGLVQPGGSLRLSCAASGFTFSGYYWTWVRQAPGKGLEWVSTISASGDSTYYADSVKGRFTISRDNSKNTLYLQMNSLRAEDTAVYYCAHDRTFGYFDYWGQGTLVTVSS
VL: B1 VL with L50A, G51A, N53S, R54L, A55Q
B3: HVEM032 (antibody, human IgG4 S228P, kappa, V domains shown)
VH: EVQLLESGGGLVQPGGSLRLSCAASGFTFSNYAIHWVRQAPGKGLEWVSTISSPGSTINYADSVKGRFTISRDNSKNTLYLQMNSLRAEDTAVYYCASGYLYPAMDVWGQGTLVTVSS
VL: B1 VL with A34S, L50G, G51A, N53K, R54L, A55Q, S94W, I97F
B4: HVEM017 (antibody, human IgG4 S228P, kappa, V domains shown)
VH: EVQLLESGGGLVQPGGSLRLSCAASGFTFSTNYMSWVRQAPGKGLEWVSLISYSGSNKYYADSVKGRFTISHDNSKNTLYLQMNSLRAEDTAVYYCARGRGNTISGTFDLWGQGTLVTVSS
VL: B1 VL with L50S, G51A, N53T, R54L, A55S
notes: also called HVEM0017
B5: HVEM004 (antibody, human IgG4 S228P, kappa, V domains shown)
VH: EVQLLESGGGLVQPGGSLRLSCAASGFTFSSYAMSWVRQAPGKGLEWVSSISGSGGKTYYADSVRGRFTISRDNSKNTLYLQMNSLRAEDTAVYYCAKGVGYTTSGRFDYWGQGTLVTVSS
VL: B1 VL with V29I, G30S, K31S, L50G, G51V, N53T, S56T, S94W, I97F
B6: HVEM018 (antibody, human IgG4 S228P, kappa, V domains shown)
VH: EVQLLESGGGLVQPGGSLRLSCAASGFTFSSYSMNWVRQAPGKGLEWVSAISGSGGGTYSADSVKGRFTISRDNSKNTLYLQMNSLRAEDTAVYYCARGKAYGYFDYWGQGTLVTVSS
VL: B1 VL with L50A, G51A, N53T, R54L, A55Q, I97V, T98I
B7: HVEM039 (antibody, human IgG4 S228P, kappa, V domains shown)
VH: EVQLLESGGGLVQPGGSLRLSCAASGFTFSSYGMNWVRQAPGKGLEWVSIINPSGDTTTYAQKFQGRFTISRDNSKNTLYLQMNSLRAEDTAVYYCARGRGAFDYWGQGTLVTVSS
VL: B1 VL with L50G, G51A, S52T, N53S, S56T, I97V

molecular target: HVEM protein stably expressed in Jurkat-Lucia NFAT cells (Homo sapiens (Human)) (UniProt Q92956); assay: flow cytometry: human LIGHT 0.25 ug/ml on HVEM-expressing Jurkat cells with antibody 10 or 100 nM, anti-His-APC; ligand LIGHT

binding | Binder
binds | B1
binds | B2
binds | B3
binds | B4
binds | B5
binds | B6
binds | B7
